# Percent effect of library compounds

Results are given as percent effect. How 0% and 100% were set is not recorded. Most values in the screen are low, and negative values occur. The compounds are a random part of those screened. Two or more numbers in one place are separate tests of the same structure; such repeats can differ widely.

Mtb glucose medium: 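Growth of Mycobacterium tuberculosis over 3 days (7H9 medium with glucose and tyloxapol); the read-out is not stated. Tested at 50 µM. Higher reads as more growth inhibition (inferred: compounds with an IC50 in retests scored well above the rest). Size under these conditions: about 69,000 compounds, about 760 of them at 50% or above in at least one test.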
Mtb cholesterol medium: 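Phenotypic screen: M. tuberculosis growth, cholesterol and DPPC medium, 4 days; the read-out is not stated. Concentration: 50 µM. The record gives no direction; compounds that gave an IC50 in retests scored well above the rest, so higher reads as more growth inhibition. Of about 69,000 compounds tested this way, about 370 (0.54%) reached 50% or more in at least one test.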

compound,Mtb glucose medium,Mtb cholesterol medium
Cc1nc(N2CCOCC2)nc(C)c1NC(=O)Cc1ccc(Cl)cc1,-23.19 and -6.371,-9.947
CCOc1ccc(CC(CNC(=O)c2ccc(C)o2)C(N)=O)cc1 (stereo not given),-11.13,-5.047
O=C1CCC2(CCOC2)CN1Cc1ccc2nsnc2c1 (stereo not given),-20,-7.815
CC(C)N1CCCC2(CCN(C(=O)CCCn3cncn3)C2)C1=O (stereo not given),-2.307,-26.33
CCN1CCCC(O)(CN(C)Cc2ccc(C)o2)C1 (stereo not given),34.53 and 1.983,8.554
Cc1csc2c(N3CCNC(C(=O)Nc4ccc(F)cc4)C3)ncnc12 (stereo not given),-25.15,15.19
CN(C)C(=O)Cc1ccccc1NCc1cccc2cccnc12,-10.06,15.79
Fc1ccc(OCCNC2CCN(Cc3ccccn3)CC2)c(F)c1,4.788 and -15.85,23.55
CCN(CC)CC(=O)N1CCN(CCCc2ccncc2)CC1,8.277 and 1.787,1.092
COCCN(C)CCN1CC2(CCN(C3CCSC3)CC2)OC1=O (stereo not given),-15.09,-2.209 and -7.628
N#CC1(NC(=O)c2nccc3ccccc23)CCC2(CC1)OCCO2,27.93 and 13.37,6.714
Cc1cc(C)cc(C2(C(=O)NCC3CCN(CC(F)(F)F)C3)CC2)c1 (stereo not given),-41.45,-2.83
O=C(O)C(F)(F)F.O=C(c1cc[nH]n1)N1CCC2(CC1)CC(Oc1cccnc1)CO2 (stereo not given),18.66,1.556
O=C1CCC(C(=O)NCCOc2ccccc2-c2ccccc2)CN1 (stereo not given),0.8035 and -17.67,-4.256
Cc1ncnc(N2CCCN(c3nc4ccccc4s3)CC2)c1C,20.85,14.24
Cc1cc(NC(=O)CN2CCCC2Cn2nc(C)nc2C)n(C)n1 (stereo not given),-4.299,-0.08861
CCS(=O)(=O)N1CCc2c(cccc2NC(=O)NCCOC)C1,2.959 and 2.166,-10.14
CCn1ncc2c1C(COC)CN(Cc1ccc(OC)cc1)C2 (stereo not given),22.72,16.02
CC(C)CNC(=O)C1CC(=O)N(c2n[nH]c3ccccc23)C1 (stereo not given),1.216,-41.61
C[C@@H]1CN(CCC(=O)NCc2ccccc2Cl)CC[C@@]1(O)C1CCC1,24.63,-6.386 and -10.08
COCCN1CCC(NCc2cc(F)ccc2F)C1 (stereo not given),-3.236,-33.87
O=C(O)C(F)(F)F.O=C(O)C(F)(F)F.O=C(O)C(F)(F)F.[H][C@@]12CCN(c3ncccn3)[C@@]1([H])CCN2Cc1ccccn1,20.33 and -4.692,8.096
O=S1(=O)CCN2C(=N1)Oc1ccc(Cl)cc12,-16.87,-11.27
CCC(=O)N(CCN(C)C)Cc1ccc(F)c(F)c1,1.108,-0.3901
CC(=O)NCCC(=O)NCC1(c2c(F)cccc2F)CCCC1,-37.3,-14.37
COc1c(C(=O)NCC2CCCO2)nnn1Cc1ccccc1 (stereo not given),-6.985,7.903
O=C(O)C(F)(F)F.O=C(O)C(F)(F)F.[H][C@@]12C[C@@H](C(=O)NC)N(C(C)C)[C@]1([H])CN(Cc1csc(C)n1)C2,21.83,4.551
COCC1(C(=O)N[C@H]2CN(c3ccnc(C)c3)C[C@@H]2C2CC2)CCC1,4.43,-7.768
CCc1nn(-c2cc(Oc3ccccc3)nc(C)n2)c(N)c1C#N,-2.609 and 6.963,-10.85
O=C(NCC1CC2(CO1)CN(c1ncccn1)C2)C1CCC1 (stereo not given),-13.93,-13.88
CC(c1nc(C2CC2)no1)N1CCC(NS(=O)(=O)c2cccs2)CC1 (stereo not given),10.41 and 7.045,-10.46
[H][C@@]12CS(=O)(=O)C[C@]1([H])N(C(=O)Nc1ccc(Cl)cc1)CCN2C(C)=O,5.11,-22.79
Cc1nnc(CSc2n[nH]c(-c3ccccn3)n2)o1,-55.35 and -3.299,-17.63
CN(C)CC1(O)CCN(C(=O)Cc2ccc3c(c2)CCC3)C1 (stereo not given),-31.51,-2.789 and 7.992
Cc1ncsc1C(=O)N1CCCC(CO)(CC2CC2)C1 (stereo not given),-6.528,5.418
CC(N)C(=O)N1CCC(Oc2cccc(C(F)(F)F)c2)CC1 (stereo not given),14.32 and 25.88,7.703
CN1CCCC1CCn1ccnc1-c1nc(-c2ccccc2)no1 (stereo not given),28.37,7.278 and -18.7
Cc1cnn(CC2CCCN2C(=O)c2cnc(-c3ccco3)s2)c1 (stereo not given),13.88,8.53
O=C(O)C(F)(F)F.[H][C@@]12C[C@@H](c3nc(C4CC4)cs3)O[C@]1([H])CN(C(=O)c1ccnnc1)C2,-12.52,-0.4117
COC(=O)c1cccn1C1CCN(CC(=O)NC2CCCCC2)CC1,-11.72,10.45
Cc1cc(C)c2cc(CNCC3CCCO3)c3nn(C)c(=O)n3c2c1 (stereo not given),27.17,-29.35
COC(=O)C(NC(=O)c1ccc(NC2CC2)nc1)c1ccccc1 (stereo not given),27.73 and 49.27,33.76
Cc1ncsc1C(=O)N1CCC(O)(Cn2c(C)cc3ccncc32)CC1,19.26,18.41
CC(=O)N1CC(c2ccnc(Nc3nccs3)n2)C1,17.99,-5.64 and -12.84
CCn1nc(C)c2nc(C)nc(NCCCn3cccn3)c21,15.42,-14.72
CNC(=O)c1cccnc1N1CCC(OCc2ccccc2)CC1,-13.48,-3.648
CSCC[C@@H](CO)NC(=O)c1sc(-c2ccccc2Cl)nc1C,10.42,-13.6
Cc1ccccc1CC(C)(C)NC(=O)COc1cccc(C(N)=O)c1,3.071 and 21.32,12.58

For reference, 4 entries once more:

* CN(C)CC1(O)CCN(C(=O)Cc2ccc3c(c2)CCC3)C1 (stereo not given) | Mtb glucose medium: -31.51%; Mtb cholesterol medium: -2.789% and 7.992%
* Cc1ccccc1CC(C)(C)NC(=O)COc1cccc(C(N)=O)c1 | Mtb glucose medium: 3.071% and 21.32%; Mtb cholesterol medium: 12.58%
* CN(C)C(=O)Cc1ccccc1NCc1cccc2cccnc12 | Mtb glucose medium: -10.06%; Mtb cholesterol medium: 15.79%
* CC(=O)NCCC(=O)NCC1(c2c(F)cccc2F)CCCC1 | Mtb glucose medium: -37.3%; Mtb cholesterol medium: -14.37%

From ChEMBL document CHEMBL3988442, “University of Dundee, Small-Polar-MMV Screening Library” (2021).